Measurements taken from patent CN107522783A.
Results are given in words; binding and its absence hold for the method and conditions named. Some binding calls cover weakened binding; strength is not graded here.

Molecular target: Recombinant marmoset IL-17A (Sino Biological, 90287-CNAE-100) (marmoset)
Assay: indirect ELISA, species cross-reactivity

binding: binds
B1: 嵌合抗体 (antibody, V domains shown)
VH: QVQLQQSGPEVVRPGVSVKISCKGSGYTFTDYAMHWVKQSHAKSLEWIGVIGPYNDNTNYNQKFKGKATMTVDKSSSTAYMEIARLTSEDSAIYYCARGERYFDYWGQGTTLTVSS
VL: DIQMTQSSSYLSVSLGGRVTITCRASDHINNWLAWYQQKPGNAPRLLIYGATSLETGVPSRFSGSGSGKDYTLSITSLQTEDVATYYCQQYWTIPLTFGAGTKLELK
